Results reported in doi:10.1101/2025.07.21.665923 (bioRxiv, 2025).
No constants are given. Whether binding was seen depends on the method and setting. Binding can be weak; no strength is given.

How the values were obtained:
[1] = biological target: T1, URAT1 peptide (15 C-terminal residues of human URAT1), TAMRA-labelled (human); assay: fluorescence polarisation
T1 sequence (peptide, tetramethylrhodamine (TAMRA) on the N-terminus): THGTLGNSVLKSTQF

[2] = biological target: T2, N-terminally biotinylated URAT1 peptide (human); assay: SPR
T2 sequence (peptide, biotin on the N-terminus): THGTLGNSVLKSTQF

[3] = biological target: T3, NaPi-IIa peptide (15 C-terminal residues of NaPi-IIa), TAMRA-labelled (human (identical in mouse)); assay: fluorescence polarisation
T3 sequence (peptide, tetramethylrhodamine (TAMRA) on the N-terminus): SPRLALPAHHNATRL

[4] = biological target: T4, URAT1 PBM peptide (KSTQF) (human); assay: crystal structure
T4 sequence (peptide): KSTQF

Row | Substance | binding [1] | binding [2] | binding [3] | other results
1 | PDZ1 domain of human NHERF1 (1PDZ1), C-terminal His8-tag (domain or fragment) | binds weakly | – | – | –
2 | PDZ2 domain of human PDZK1 as in the crystallization construct 3PDZ2^KSTQF (domain or fragment) | – | – | – | binding [4]: binds
3 | PDZ4 domain of human PDZK1 (3PDZ4), C-terminal His8-tag (domain or fragment) | – | – | binds weakly | –

Now from value to substance, other results behind:

Row | binding [1] | binding [2] | binding [3] | Substance | other results
4 | binds weakly | – | – | PDZ2 domain of human NHERF1 (1PDZ2), C-terminal His8-tag (domain or fragment) | –
5 | – | binds | binds weakly | PDZ2 domain of human PDZK1 (3PDZ2), C-terminal His8-tag (domain or fragment) | –
6 | – | binds weakly | binds weakly | PDZ3 domain of human PDZK1 (3PDZ3), C-terminal His8-tag (domain or fragment) | –
